Measured values reported in PMC5687617.
These are yes or no findings as the source states them, for the method shown. In cells and extracts the contact can be indirect. Some binding calls cover weakened binding; strength is not graded here.

Protein sequences, listed by entry. Tags and fused reporters are not part of them.
UniProt Q15327: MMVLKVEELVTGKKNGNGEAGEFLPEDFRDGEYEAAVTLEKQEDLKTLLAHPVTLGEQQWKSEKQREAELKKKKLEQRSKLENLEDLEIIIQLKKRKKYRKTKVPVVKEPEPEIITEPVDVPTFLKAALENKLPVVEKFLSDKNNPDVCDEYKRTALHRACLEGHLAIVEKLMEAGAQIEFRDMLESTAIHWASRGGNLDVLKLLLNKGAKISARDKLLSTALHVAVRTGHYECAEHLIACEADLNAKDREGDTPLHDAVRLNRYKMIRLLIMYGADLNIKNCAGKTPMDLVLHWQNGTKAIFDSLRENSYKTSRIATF
UniProt Q00987: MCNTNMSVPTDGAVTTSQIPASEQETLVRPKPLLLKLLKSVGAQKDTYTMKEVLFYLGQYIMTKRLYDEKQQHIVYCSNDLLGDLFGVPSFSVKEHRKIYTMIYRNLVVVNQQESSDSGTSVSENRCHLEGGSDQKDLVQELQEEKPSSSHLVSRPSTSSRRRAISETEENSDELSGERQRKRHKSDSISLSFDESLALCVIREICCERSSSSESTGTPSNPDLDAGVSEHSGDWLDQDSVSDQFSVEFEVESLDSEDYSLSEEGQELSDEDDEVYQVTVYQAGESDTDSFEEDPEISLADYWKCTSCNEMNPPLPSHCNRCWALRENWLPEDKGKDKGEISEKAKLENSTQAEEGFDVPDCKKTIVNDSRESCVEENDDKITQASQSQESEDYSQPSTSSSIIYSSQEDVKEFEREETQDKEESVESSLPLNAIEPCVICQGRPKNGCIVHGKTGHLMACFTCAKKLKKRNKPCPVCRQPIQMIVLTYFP

Key:
[1] = target: GFP-tagged ANKRD1 (human) (UniProt Q15327); assay: co-IP; HEK293T transfected with GFP/YFP-tagged ANKRD1 or empty vector; lysates incubated overnight with anti-GFP agarose beads (Chromotek); beads washed twice with cold TBS; western blot
[2] = target: Flag-ANKRD1 (Ankyrin Repeat Domain 1/CARP) (human) (UniProt Q15327); assay: co-IP; HEK293T transfected with Flag-ANKRD1 or Flag-empty, lysed after 72 h; lysates incubated overnight with anti-flag M2 agarose beads; beads washed twice with cold TBS; western blot for MDM2 and p53

binding [1] | binding [2] | Substance
binds | binds | MDM2 (human homologue of mouse double minute 2) (from UniProt Q00987 1-491)
binds | binds | p53 (Tumor Suppressor p53) (from UniProt P04637 1-393)
